Experimental findings from patent US7514534 are described below.

Chains of the proteins cited; added tags and fusions are not shown. Lines headed by an entry give the natural chain unless they say otherwise; changes in a name come on top.
UniProt Q9NRE1: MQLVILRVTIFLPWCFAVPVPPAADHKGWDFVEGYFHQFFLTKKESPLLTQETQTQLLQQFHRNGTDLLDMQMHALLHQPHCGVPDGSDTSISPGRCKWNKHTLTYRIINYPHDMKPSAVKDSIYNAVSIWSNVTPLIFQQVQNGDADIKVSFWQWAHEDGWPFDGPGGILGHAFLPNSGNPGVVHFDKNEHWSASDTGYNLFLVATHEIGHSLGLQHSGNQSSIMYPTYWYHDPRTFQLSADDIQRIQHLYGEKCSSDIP

For the assay, the target named is MMP-26 catalytic domain, tagged with hexa-histidine (human) (UniProt Q9NRE1). Briefly: MMP cross reactivity ELISA, IgG4 at 2 µg/ml.

These are yes or no findings as the source states them, for the method shown. Some binding calls cover weakened binding; strength is not graded here.

B1: A04 (antibody, human IgG4, V domains shown)
VH: EVQLLESGGGLVQPGGSLRLSCAASGFTFSEYNMAWVRQAPGKGLEWVSRIGSSGGKTKYADSVKGRFTISRDNSKNTLYLQMNSLRAEDTAVYYCARDEAPDYGDDAEAFDIWGQGTMVTVSS
VL: QSALTQPPSASGTPGQRVTISCSGGYSNMGSNYAHWYQQVPGTAPKLLIYNNNQRPSGVPDRFSGSKSGTSASLAISGLRSEDEADYYCAAWDENLSGPVFGTGTKVTVLG
On to B1, for which the binding result is “binds”.

B2: A08 (antibody, human IgG4, V domains shown)
VH: EVQLLESGGGLVQPGGSLRLSCAASGFTFSVYDMPWVRQAPGKGLEWVSVIYPSGGFTRYADSVKGRFTISRDNSKNTLYLQMNSLRAEDTAVYYCAADPTIQLWAYYYGMDVWGQGTTVTVSS
VL: QSVLTQPPSVSGTPGQRVTISCSGGYPNMGSNYAHWYQQLPGTAPKLLIYNDNQRPSGVPDRFSGSKSGTSASLAISGLRSEDEADYYCAAWDDSLSGPVFGGGTKLTVLG
With B2, the binding entry is recorded as “binds”.

B3: A03 (antibody, human IgG4, V domains shown)
VH: EVQLLESGGGLVQPGGSLRLSCAASGFTFSIYSMDWVRQAPGKGLEWVSSIYSSGGATRYADSVKGRFTISRDNSKNTLYLQMNSLRAEDTAVYYCARCSWLQLVPMHPWGQGTLVTVSS
VL: QSALTQPPSASGTPGQRVTISCSGGSSNIGSNFVYWYRQLPGTAPKLLIYRNYQRPSGVPDRFSGSKSGTSASLAISGLLSEDEADYYCAAWDDNVGGVFGSGTKVTVLG
B3: the binding entry was “binds”.

B4: A09 (antibody, human IgG4, V domains shown)
VH: EVQLLESGGGLVQPGGSLRLSCAASGFTFSWYDMYWVRQAPGKGLEWVSSIYSSGGYTAYADSVKGRFTISRDNSKNTLYLQMNSLRAEDTAVYYCAKDRDPCSRTTCYNWFDPWGQGTLVTVSS
VL: QSELTQPPSASGTPGQRVTISCSGGSSNIGSNFVYWYRQLPGTAPKLLIYRNYQRPSGVPDRFSGSKSGTSASLAISGLLSEDEADYYCAAWDDNVGGVFGSGTKVTVLG
On to B4, for which the binding result is listed as “binds”.

B5: A07 (antibody, human IgG4, V domains shown)
VH: EVQLLESGGGLVQPGGSLRLSCAASGFTFSEYNMMWVRQAPGKGLEWVSVISPSGGGTLYADSVKGRFTISRDNSKNTLYLQMNSLRAEDTAVYYCARDLNNSSPPDSNDAFDIWGRGTMVTVSS
VL: QSELTQPPSASGSPGQSVTISCTGTSSDVGGYNYVSWYQQHPDKAPKLLIYEVTQRPSGVPDRFSGSRSGNTASLTVSGLQAEDEADYYCSSYAGRNNLYVFGPGTKVTVLG
For B5, the binding entry was “binds”.

B6: A01 (antibody, human IgG4, V domains shown)
VH: EVQLLESGGGLVQPGGSLRLSCAASGFTFSAYNMFWVRQAPGKGLEWVSGIGSSGGIAPYADSVKGRFTISRDNSKNTLYLQMNSLRAEDTAVYYCARAAYEVENWFDPWGQGTLVTVSS
VL: DIQMTQSPGTLSLSPGERATLSCRASQIVRSTYLAWYQQKPGQAPRLLIYGTSSRATGVPDRFSGSGSGTDFTLTISGLEPEDFALYYCQRYGDSPPITFGQGTRLEITR
Turning to B6, the binding result is given as “binds”.

B7: H6-orig (antibody, human IgG4, V domains shown)
VH: EVQLLESGGGLVQPGGSLRLSCAASGFTFSQYWMNWVRQAPGKGLEWVSGIGPSGGITYYADSVKGRFTISRDNSKNTLYLQMNSLRAEDTAVYYCARGEEDGYNSDYWGQGTLVTVSS
VL: QSELTQPPSASGSPGQSVTISCTGTSSDVGAYNYVSWYQQHPGKAPKLIIYEVNKRPSGVPDRFSASKSGNTASLTVSGLQAEDEADYYCNSYAGSNSLIFGGGTKLTVLG
For B7, the binding entry is recorded as “binds”.

B8: A05 (antibody, human IgG4, V domains shown)
VH: EVQLLESGGGLVQPGGSLRLSCAASGFTFSVYSMNWVRQAPGKGLEWVSYIVPSGGNTPYADSVKGRFTISRDNSKNTLYLQMNSLRAEDTAVYYCARDGAATVDLDYWGQGTLVTVSS
VL: DIQMTQSPSSLSLSPGERATLSCRASQSVSSYLAWYQQKPGQAPRLLIYDASNRATGIPARFSGSGSGTDFTLTISSLEPEDFAVYYCQQRSNWPRTFGGGTKVEIKR
Regarding B8, the binding entry was “binds”.
